According to article PMC10798152:
These are yes or no findings as the source states them, for the method shown. Binding seen in cells or lysates may run through a third protein. Some results given as binding are weak or reduced against the parent protein; the word gives no strength.

By UniProt entry, the sequences of proteins in these tests, tags left out.
UniProt Q13547: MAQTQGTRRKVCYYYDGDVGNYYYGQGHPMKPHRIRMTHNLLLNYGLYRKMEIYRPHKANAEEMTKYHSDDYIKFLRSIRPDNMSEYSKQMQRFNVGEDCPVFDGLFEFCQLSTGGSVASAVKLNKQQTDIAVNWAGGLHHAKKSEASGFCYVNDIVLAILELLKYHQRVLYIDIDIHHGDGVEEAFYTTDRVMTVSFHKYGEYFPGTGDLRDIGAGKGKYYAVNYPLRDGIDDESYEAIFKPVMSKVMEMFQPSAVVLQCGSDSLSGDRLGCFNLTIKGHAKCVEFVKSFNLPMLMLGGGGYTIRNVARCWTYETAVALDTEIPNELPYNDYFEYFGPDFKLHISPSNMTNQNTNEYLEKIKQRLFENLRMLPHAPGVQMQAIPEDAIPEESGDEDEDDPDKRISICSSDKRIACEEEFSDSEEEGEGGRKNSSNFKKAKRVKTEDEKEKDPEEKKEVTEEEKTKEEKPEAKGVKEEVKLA

Key:
[1] = molecular target: T1, gasdermin D (GSDMD) protein, endogenous in NHEK cells (human (endogenous in NHEK)) (UniProt P57764); test: co-IP; lysate of NHEK cells transfected with blank vector or KCTD6 expression vector, GSDMD antibody (by the legend of Fig. 6E); immunoblot for HDAC1
T1 sequence: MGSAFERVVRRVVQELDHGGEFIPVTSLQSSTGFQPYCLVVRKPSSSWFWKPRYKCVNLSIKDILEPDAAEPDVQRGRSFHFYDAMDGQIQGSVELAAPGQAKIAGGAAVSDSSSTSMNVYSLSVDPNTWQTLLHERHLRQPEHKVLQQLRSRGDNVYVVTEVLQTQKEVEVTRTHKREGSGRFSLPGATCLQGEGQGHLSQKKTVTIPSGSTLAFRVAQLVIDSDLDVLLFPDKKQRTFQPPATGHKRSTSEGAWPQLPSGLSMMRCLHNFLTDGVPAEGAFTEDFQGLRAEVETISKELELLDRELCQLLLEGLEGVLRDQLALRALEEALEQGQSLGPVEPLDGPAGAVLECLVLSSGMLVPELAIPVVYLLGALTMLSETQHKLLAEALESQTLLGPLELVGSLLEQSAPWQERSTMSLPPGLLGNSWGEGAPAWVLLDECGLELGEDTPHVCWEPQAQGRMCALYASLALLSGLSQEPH

[2] = molecular target: Histone Deacetylase1 (HDAC1) protein, endogenous in NHEK cells (human (endogenous in NHEK)) (UniProt Q13547); test: co-IP; NHEK cell lysate (about 160 ug protein) with 2 ug GSDMD or HDAC1 antibody, Co-IP Kit (Abison); immunoblot for KCTD6
[3] = molecular target: Histone Deacetylase1 (HDAC1) protein, endogenous in NHEK cells (human (endogenous in NHEK)) (UniProt Q13547); test: co-IP; lysate (about 160 ug protein) of NHEK cells transfected with blank vector or GSDMD expression vector, 2 ug HDAC1 antibody; immunoblot for KCTD6
[4] = molecular target: Histone Deacetylase1 (HDAC1) protein, endogenous in NHEK cells (human (endogenous in NHEK)) (UniProt Q13547); test: co-IP; lysate of NHEK cells transfected with blank vector or KCTD6 expression vector, GSDMD antibody (by the legend of Fig. 6E); immunoblot for HDAC1

Molecule: Histone Deacetylase1 (HDAC1) protein, endogenous in NHEK cells (from UniProt Q13547 1-482)
- binding [1]: binds

B1: Potassium Channel Tetramerization Domain Containing 6 (KCTD6) protein, endogenous in NHEK cells (protein, UniProt Q8NC69 1-237)
chain: MDNGDWGYMMTDPVTLNVGGHLYTTSLTTLTRYPDSMLGAMFGGDFPTARDPQGNYFIDRDGPLFRYVLNFLRTSELTLPLDFKEFDLLRKEADFYQIEPLIQCLNDPKPLYPMDTFEEVVELSSTRKLSKYSNPVAVIITQLTITTKVHSLLEGISNYFTKWNKHMMDTRDCQVSFTFGPCDYHQEVSLRVHLMEYITKQGFTIRNTRVHHMSERANENTVEHNWTFCRLARKTDD
- binding [2]: binds
- binding [3]: binds

B2: GSDMD overexpressed from the GSDMD expression vector (pcDNA3.1-GSDMD) (protein, UniProt P57764 1-484)
chain: MGSAFERVVRRVVQELDHGGEFIPVTSLQSSTGFQPYCLVVRKPSSSWFWKPRYKCVNLSIKDILEPDAAEPDVQRGRSFHFYDAMDGQIQGSVELAAPGQAKIAGGAAVSDSSSTSMNVYSLSVDPNTWQTLLHERHLRQPEHKVLQQLRSRGDNVYVVTEVLQTQKEVEVTRTHKREGSGRFSLPGATCLQGEGQGHLSQKKTVTIPSGSTLAFRVAQLVIDSDLDVLLFPDKKQRTFQPPATGHKRSTSEGAWPQLPSGLSMMRCLHNFLTDGVPAEGAFTEDFQGLRAEVETISKELELLDRELCQLLLEGLEGVLRDQLALRALEEALEQGQSLGPVEPLDGPAGAVLECLVLSSGMLVPELAIPVVYLLGALTMLSETQHKLLAEALESQTLLGPLELVGSLLEQSAPWQERSTMSLPPGLLGNSWGEGAPAWVLLDECGLELGEDTPHVCWEPQAQGRMCALYASLALLSGLSQEPH
- binding [3]: binds

B3: KCTD6 overexpressed from the KCTD6 expression vector (protein, UniProt Q8NC69 1-237)
chain: MDNGDWGYMMTDPVTLNVGGHLYTTSLTTLTRYPDSMLGAMFGGDFPTARDPQGNYFIDRDGPLFRYVLNFLRTSELTLPLDFKEFDLLRKEADFYQIEPLIQCLNDPKPLYPMDTFEEVVELSSTRKLSKYSNPVAVIITQLTITTKVHSLLEGISNYFTKWNKHMMDTRDCQVSFTFGPCDYHQEVSLRVHLMEYITKQGFTIRNTRVHHMSERANENTVEHNWTFCRLARKTDD
- binding [4]: binds
